# Where “and” joins values, the source holds several entries; their conditions need not be identical. Equal entries are not always repeated. The inconclusive results got no clear call from the source; some entries with a clear call stand among them for comparison. For part of these data: A potency beside an inconclusive call is a rough fit, not a confirmed value. Some compounds were tested as several samples or in several runs, with calls that do not always agree. Calls of active or inactive are those of the source. How the source made its calls: active means hit-call score of the fitted dose curve at least 0.9, where 1 is the maximum; inconclusive means response in the unintended direction; inactive means score below 0.9.
# Amino acid sequences for entries named in this document (tags omitted).
# UniProt P04637, whole entry, looked up: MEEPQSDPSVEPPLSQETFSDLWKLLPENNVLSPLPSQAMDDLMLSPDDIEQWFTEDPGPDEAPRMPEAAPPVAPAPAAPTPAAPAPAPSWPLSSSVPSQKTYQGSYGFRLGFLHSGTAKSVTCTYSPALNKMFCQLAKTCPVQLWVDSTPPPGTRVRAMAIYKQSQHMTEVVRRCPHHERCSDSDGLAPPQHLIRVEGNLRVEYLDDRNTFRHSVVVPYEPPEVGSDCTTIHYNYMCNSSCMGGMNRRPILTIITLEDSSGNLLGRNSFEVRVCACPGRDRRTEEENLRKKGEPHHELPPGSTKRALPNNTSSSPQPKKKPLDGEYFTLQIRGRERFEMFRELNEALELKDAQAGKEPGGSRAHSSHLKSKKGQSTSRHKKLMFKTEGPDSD
# Columns and labels:
# [1] = TOX21_p53_BLA_p4_viability: Viability Assessment in the Tox21 HCT-116 p53 Agonism Beta-lactamase Assay, Phase 4 (AID 2283597);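 further: hits lower the luminescence signal meaning cytotoxicity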
# Method in brief: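 Readout: ATP luminescence (CellTiter-Glo), measured 30 min after reagent addition at RT. The reagent followed a 2 h CCF4-AM incubation, and the cells had been exposed to compound for 16 h at 37C.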
# [2] = molecular target: Cellular tumor antigen p53 (Homo sapiens) (UniProt P04637); test: TOX21_p53_BLA_p5_ratio: Tox21 HCT-116 p53 Agonism Beta-lactamase Assay, Ratio, Phase 5 (AID 2283599)
# Method in brief: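 HCT-116 p53-bla cells (4000/well) plated 5 h, dosed with compound (217-fold DMSO dilution) for 16 h at 37 C; CCF4-AM substrate 2 h at room temperature. Activity is the 460/530 nm emission ratio (405 nm excitation), fitted in gain-of-signal direction versus DMSO.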
# [3] = molecular target: Cellular tumor antigen p53 (Homo sapiens) (UniProt P04637); test: TOX21_p53_BLA_p4_ratio: Tox21 HCT-116 p53 Agonism Beta-lactamase Assay, Ratio, Phase 4 (AID 2283601)
# Method in brief: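 HCT-116 p53 beta-lactamase reporter cells (4000/well) preincubated 5 h, then compound (217-fold dilution of DMSO stock) for 16 h at 37C. CCF4-AM substrate added 2 h at room temperature; 460/530 nm emission ratio fitted upward versus DMSO.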
# [4] = Tanguay_ZF_120hpf_JAW_legacy: (Legacy) Oregon State University Tanguay Lab 120 Hour Post-fertilization zebrafish Assay for Jaw Malformation (AID 2283638);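 on AC50: active means more embryos with jaw malformation than DMSO controls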
# Method in brief: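 Steps: dechorionate 4 hpf embryos (pronase); plate 1/well at 6 hpf; add test chemical, 0.64% DMSO final; seal, cover, hold at 28C statically to 120 hpf; score jaw defect presence/absence microscopically. Dead embryos not scored.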
# [5] = Tanguay_ZF_120hpf_OTIC_legacy: (Legacy) Oregon State University Tanguay Lab 120 Hour Post-fertilization zebrafish Assay for Otic Vesicle Malformation (AID 2283639)
# Method in brief: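 Binary scoring of otic vesicle defects at 120 hpf in zebrafish (Tropical 5D) held under static exposure at 28C, sealed and shaded, with final DMSO 0.64%. Embryos dying by 24 or 120 hpf excluded; fitted positively against DMSO.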
# [6] = Tanguay_ZF_120hpf_SNOU_legacy: (Legacy) Oregon State University Tanguay Lab 120 Hour Post-fertilization zebrafish Assay for Snout Malformation (AID 2283637)
# Method in brief: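 Binary brightfield scoring of snout malformation at 120 hpf. Dechorionated 5D wild-type embryos, one per well, static exposure from 6 hpf at 28C, sealed and dark; final DMSO 0.64% (vol/vol), DMSO as baseline; 5uM trimethyltin chloride positive control.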
# [7] = Tanguay_ZF_120hpf_AXIS_legacy: (Legacy) Oregon State University Tanguay Lab 120 Hour Post-fertilization zebrafish Assay for Body Axis Malformation (AID 2283635);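 further: potency for an increased fraction of larvae scored with body axis malformation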
# Method in brief: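 Chorion is removed with pronase at 4 hpf, then single 6 hpf embryos are dosed (final DMSO 0.64%) and held statically at 28C in sealed, foil-covered plates. At 120 hpf body axis malformation is recorded as present or absent.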
smiles,measurement,setting,value
CCCCCCO,AC50,[1],inconclusive: 0.00153 µM
same,AC50,[2],inconclusive: 46.1 µM and inconclusive: 46.3 µM
same,AC50,[3],inconclusive: 82.8 µM and inconclusive: 46.3 µM
CCCCCCCCCCCCCCCC(=O)O,outcome,[1],inactive
same,AC50,[2],inconclusive: 23 µM
same,outcome,[3],inactive
CC(C)[C@H]1CC[C@@H](C)CC1=O,AC50,[1],inconclusive: 80.6 µM
same,outcome,[2],inactive
same,AC50,[3],inconclusive: 46.1 µM
CC(=O)O[C@H]1C[C@@H]2CC[C@@]1(C)C2(C)C,AC50,[1],inconclusive: 46.1 µM
same,outcome,[2],inactive
same,AC50,[3],inconclusive: 46.1 µM
CCC(C)C1CCCCC1=O (stereo unspecified),AC50,[1],inconclusive: 80.7 µM
same,AC50,[2],inconclusive: 46.1 µM
same,AC50,[3],inconclusive: 72 µM
C=C(C)C(=O)OCCOCCOCCOCCOC(=O)C(=C)C,outcome,[1],inactive
same,AC50,[2],inconclusive: 46.1 µM
same,outcome,[3],inactive
CC1=C(CC(=O)O)c2cc(F)ccc2/C1=C\c1ccc(S(C)=O)cc1 (stereo unspecified),AC50,[1],inconclusive: 23 µM
same,outcome,[2],inactive
same,AC50,[3],inconclusive: 46.1 µM and inconclusive: 12.4 µM
Oc1c(Cl)cc(Cl)c(Cl)c1Cc1c(O)c(Cl)cc(Cl)c1Cl,AC50,[1],active: 36.9 µM and active: 49.3 µM and active: 1.62 µM
same,AC50,[2],active: 13.8 µM and active: 26.4 µM and active: 18.6 µM
same,AC50,[3],active: 42.2 µM and active: 43.5 µM and active: 6.65 µM
CCCCC1CCC(O)CC1 (stereo unspecified),AC50,[1],inconclusive: 46.1 µM
same,AC50,[2],active: 83.6 µM
same,AC50,[3],inconclusive: 46.1 µM
OCc1c[nH]c2ccccc12,outcome,[1],inactive
same,outcome,[2],inactive
same,AC50,[3],active: 78.9 µM
C=CC(=O)OCCCCCCCC(C)C,AC50,[1],inconclusive: 86.6 µM
same,AC50,[2],inconclusive: 46.1 µM and inconclusive: 9.14 µM
same,outcome,[3],inactive
O=C(O)c1ccccc1Nc1cccc(C(F)(F)F)c1,AC50,[1],active: 22.7 µM and active: 23 µM
same,AC50,[2],active: 46.1 µM
same,AC50,[3],active: 39.5 µM
Cc1cc(C)c(S(=O)(=O)O)cc1N=Nc1cc(S(=O)(=O)O)c2ccccc2c1O,AC50,[1],inconclusive: 46.1 µM
same,AC50,[2],inconclusive: 46.1 µM
same,outcome,[3],inactive
O=C(O)Cc1c(Cl)ccc(Cl)c1Cl,outcome,[1],inactive
same,AC50,[2],inconclusive: 46.1 µM
same,AC50,[3],inconclusive: 46.1 µM
c1ccc(CNc2ncnc3c2ncn3C2CCCCO2)cc1 (stereo unspecified),outcome,[1],inactive
same,AC50,[2],inconclusive: 46.1 µM
same,AC50,[3],inconclusive: 46.1 µM
Cc1cc(C2(c3cc(C)c(O)cc3C)OS(=O)(=O)c3ccccc32)c(C)cc1O,AC50,[1],inconclusive: 3.11 µM and inconclusive: 85.9 µM
same,AC50,[2],inconclusive: 46.1 µM
same,AC50,[3],inconclusive: 16.8 µM and inconclusive: 22.5 µM
CC(CCl)OP(=O)(OC(C)CCl)OC(C)CCl (stereo unspecified),outcome,[1],inactive
same,AC50,[2],inconclusive: 43.8 µM and inconclusive: 46.2 µM
same,AC50,[3],inconclusive: 46.2 µM
COCCOCCOC,AC50,[1],inconclusive: 1.12 µM and inconclusive: 2.39 µM
same,AC50,[2],inconclusive: 46.1 µM
same,AC50,[3],inconclusive: 46.1 µM
same,AC50,[4],inconclusive: 46.5 µM
same,AC50,[5],inconclusive: 5.38 µM
CCCCOC(=O)c1ccccc1,AC50,[1],inconclusive: 46.1 µM
same,AC50,[2],inconclusive: 46.1 µM
same,outcome,[3],inactive
O=C(C=Cc1ccccc1)OCCc1ccccc1,AC50,[1],inconclusive: 46.1 µM
same,AC50,[2],inconclusive: 46.1 µM
same,outcome,[3],inactive
CC(C)(C)c1csc(-c2cc3cc(OCc4ccccc4CC(=O)O)ccc3o2)n1,AC50,[1],active: 46.1 µM
same,AC50,[2],active: 47 µM
same,AC50,[3],active: 49.9 µM
same,AC50,[6],inconclusive: 31 µM
same,outcome,[4],inactive
CCc1occc(=O)c1O,AC50,[1],inconclusive: 11.5 µM
same,AC50,[2],inconclusive: 46.1 µM
same,AC50,[3],inconclusive: 46.1 µM
CCCCCCCCCCCC[N+](C)(C)C,AC50,[1],active: 83.2 µM and active: 46 µM and active: 46.1 µM
same,AC50,[2],active: 33.3 µM
same,AC50,[3],active: 37.4 µM and active: 17.3 µM and active: 46.4 µM
O=c1cc(-c2ccccc2)oc2cc(O)cc(O)c12,AC50,[1],inconclusive: 46.1 µM
same,AC50,[2],active: 22.3 µM
same,AC50,[3],active: 46.1 µM
CC(C)(C)c1cc(O)c(C(C)(C)C)cc1O,AC50,[1],active: 69 µM
same,AC50,[2],active: 90.5 µM
same,outcome,[3],inactive
same,AC50,[7],active: 25.7 µM
same,outcome,[5],inactive

# Another view of part of the listing above:
smiles	measurement	setting	value
O=C(O)Cc1c(Cl)ccc(Cl)c1Cl	AC50	[3]	inconclusive: 46.1 µM
c1ccc(CNc2ncnc3c2ncn3C2CCCCO2)cc1 (stereo unspecified)	outcome	[1]	inactive
same	AC50	[2]	inconclusive: 46.1 µM
same	AC50	[3]	inconclusive: 46.1 µM
Cc1cc(C2(c3cc(C)c(O)cc3C)OS(=O)(=O)c3ccccc32)c(C)cc1O	AC50	[1]	inconclusive: 3.11 µM and inconclusive: 85.9 µM

# Source: PubChem BioAssay (EPA / NIEHS)
